According to the supplement of paper PMC9015667:
Where a name gives a salt, the structure may show the parent alone. Some of the results follow. Repeats are few or missing, and single values can be far off.

Test system: M229R (matched melanoma line resistant to BRAF inhibitors)
Assay: reduction in cell viability relative to untreated/vehicle; higher = more growth inhibition
Conditions: 200 nM; 72 h

| Compound | reduction in cell viability [%] |
| --- | --- |
| CCCCCCCCCCCCCCCCCCOP(=O)([O-])OC1CC[N+](C)(C)CC1 [Perifosine] | < 0 |
| CN1C(=O)C[C@@H](C(=O)N[C@@H](Cc2c[nH]cn2)C(=O)N2CCC[C@H]2C(N)=O)NC1=O [Taltirelin] | < 0 |
| O=C(NC[C@H](O)CO)c1ccncc1Nc1ccc(I)cc1F [Pimasertib] | < 0 |
| CC(C)C[C@@H](C=O)NC(=O)[C@H](CC(C)C)NC(=O)[C@H](CC(C)C)NC(=O)OCc1ccccc1 | 58.9 |
| NC(=O)N1c2ccccc2CC(=O)c2ccccc21 [Oxcarbazepine] | < 0 |
| O=C1NC(=O)/C(=C/c2ccc3nccc(-c4ccncc4)c3c2)S1 | < 0 |
| NC(=O)c1ccc2[nH]ccc2c1 | < 0 |
| C[C@H]1[C@H](NC(=O)/C(=N\OC(C)(C)C(=O)O)c2csc(N)n2)C(=O)N1S(=O)(=O)O [Aztreonam] | < 0 |
| CO[C@@H]1[C@@H](OC(N)=O)[C@@H](O)[C@H](Oc2ccc3c(O)c(NC(=O)c4ccc(O)c(CC=C(C)C)c4)c(=O)oc3c2C)OC1(C)C [Novobiocin sodium] | 3.97 |
| C[C@@H]1CC(=O)NN=C1c1ccc(NN=C(C#N)C#N)cc1 [Levosimendan] | < 0 |
| Nc1cccc(S(=O)(=O)N2CCCN(S(=O)(=O)c3ccc4c(c3)OCCO4)CC2)c1 | < 0 |
| CCOC(=O)N1CCN(/[N+]([O-])=N/Oc2ccc([N+](=O)[O-])cc2[N+](=O)[O-])CC1 | 4.15 |
| CC(C)NC[C@@H](C(=O)N1CCN(c2ncnc3c2[C@H](C)C[C@H]3O)CC1)c1ccc(Cl)cc1 | 31.1 |

Test system: M238P (parental melanoma line)
Assay: as above
Conditions: 200 nM; 72 h

| Compound | reduction in cell viability [%] |
| --- | --- |
| C=CCNC1=C2C[C@@H](C)C[C@H](OC)[C@H](O)[C@@H](C)/C=C(\C)[C@H](OC(N)=O)[C@@H](OC)/C=C\C=C(/C)C(=O)NC(=CC1=O)C2=O [Tanespimycin] | 43.2 |
| CCCS(=O)(=O)Nc1ccc(F)c(C(=O)c2c[nH]c3ncc(-c4ccc(Cl)cc4)cc23)c1F [Vemurafenib (PLX4032, RG7204)] | 24.4 |
| Cc1cn2c(-c3cn[nH]c3)cnc2c(Nc2ccc(C(=O)N3CCNCC3)cc2F)n1 | < 0 |
| CCc1cc(/C(C)=N/OCc2ccc(C3CCCCC3)c(C(F)(F)F)c2)ccc1CN1CC(C(=O)O)C1 | < 0 |
| CCn1cc(C(=O)O)c(=O)c2cc(F)c(N3CCNC(C)C3)c(F)c21 (stereo not given) [Lomefloxacin hydrochloride] | < 0 |
| Cc1c(CN2CCN(C(=O)[C@H](C)O)CC2)sc2c(N3CCOCC3)nc(-c3cnc(N)nc3)nc12 | 51.1 |
| N=C(N)c1ccc(OCCCCCOc2ccc(C(=N)N)cc2)cc1 [Pentamidine isethionate] | < 0 |
| CC(S)C(=O)NCC(=O)O (stereo not given) [Tiopronin] | < 0 |
| Nc1nc2[nH]cnc2c(=S)[nH]1 [Tioguanine] | < 0 |
| O=c1c(O)c(-c2cc(O)c(O)c(O)c2)oc2cc(O)cc(O)c12 [Myricetin] | < 0 |
| COc1ccccc1N1CCN(CC(O)COc2cccc3ccccc23)CC1 (stereo not given) [Naftopidil] | < 0 |
| CN1CC[C@H](c2c(O)cc(O)c3c(=O)cc(-c4ccccc4Cl)oc23)[C@H](O)C1 [Flavopiridol] | 86 |
| COc1cc(OC)cc(-c2ccc3ncc4ccc(=O)n(-c5ccc(N6CCNCC6)c(C(F)(F)F)c5)c4c3c2)c1 | 20.2 |
| O=C(O)C[C@H](O)C[C@H](O)/C=C/c1c(C2CC2)nc2ccccc2c1-c1ccc(F)cc1 [Pitavastatin calcium] | 43.5 |
| C=C1/C(=C\C=C2/CCC[C@]3(C)[C@@H]([C@H](C)/C=C/C=C/C(O)(CC)CC)CC[C@@H]23)C[C@@H](O)C[C@@H]1O [Seocalcitol] | < 0 |
| CCOc1cc2ncc(C#N)c(Nc3ccc(F)c(Cl)c3)c2cc1NC(=O)/C=C/CN(C)C [Pelitinib] | 31.6 |
| Cc1cccc(-c2[nH]ncc2-c2ccc3ncccc3n2)n1 | < 0 |
| CCC(=O)NCC[C@@H]1CCc2ccc3c(c21)CCO3 [Ramelteon] | < 0 |
| C[C@H](Cc1cc2c(c(C(N)=O)c1)N(CCCO)CC2)NCCOc1ccccc1OCC(F)(F)F [Silodosin] | < 0 |
| Nc1ccc(C(=O)Nc2cccc(-c3nc(N4CCOCC4)c4oc5ncccc5c4n3)c2)cn1 | < 0 |
| O=C(O)c1nc(=O)[nH]c(=O)[nH]1 [Oteracil potassium] | < 0 |
| Cc1cn([C@H]2C[C@H](N=[N+]=[N-])[C@@H](CO)O2)c(=O)[nH]c1=O [Zidovudine] | < 0 |

Nothing new here: 10 of the compounds above.

| Compound | reduction in cell viability [%] |
| --- | --- |
| CCCS(=O)(=O)Nc1ccc(F)c(C(=O)c2c[nH]c3ncc(-c4ccc(Cl)cc4)cc23)c1F [Vemurafenib (PLX4032, RG7204)] | 24.4 |
| Cc1cn2c(-c3cn[nH]c3)cnc2c(Nc2ccc(C(=O)N3CCNCC3)cc2F)n1 | < 0 |
| CCc1cc(/C(C)=N/OCc2ccc(C3CCCCC3)c(C(F)(F)F)c2)ccc1CN1CC(C(=O)O)C1 | < 0 |
| CCn1cc(C(=O)O)c(=O)c2cc(F)c(N3CCNC(C)C3)c(F)c21 (stereo not given) [Lomefloxacin hydrochloride] | < 0 |
| Cc1c(CN2CCN(C(=O)[C@H](C)O)CC2)sc2c(N3CCOCC3)nc(-c3cnc(N)nc3)nc12 | 51.1 |
| N=C(N)c1ccc(OCCCCCOc2ccc(C(=N)N)cc2)cc1 [Pentamidine isethionate] | < 0 |
| CC(S)C(=O)NCC(=O)O (stereo not given) [Tiopronin] | < 0 |
| Nc1nc2[nH]cnc2c(=S)[nH]1 [Tioguanine] | < 0 |
| O=c1c(O)c(-c2cc(O)c(O)c(O)c2)oc2cc(O)cc(O)c12 [Myricetin] | < 0 |
| COc1ccccc1N1CCN(CC(O)COc2cccc3ccccc23)CC1 (stereo not given) [Naftopidil] | < 0 |
